Reference: patent publication US20160074468A1 (GENUS ONCOLOGY, published 2016)
These are yes or no findings as the source states them, for the method shown. In cells and extracts the contact can be indirect. Some entries that bind do so weakly or less than the wild type.

By UniProt entry, the sequences of proteins in these tests, tags left out. Where a name states a change or a piece, a line headed by the entry shows the natural chain unless it says otherwise.
UniProt P15941: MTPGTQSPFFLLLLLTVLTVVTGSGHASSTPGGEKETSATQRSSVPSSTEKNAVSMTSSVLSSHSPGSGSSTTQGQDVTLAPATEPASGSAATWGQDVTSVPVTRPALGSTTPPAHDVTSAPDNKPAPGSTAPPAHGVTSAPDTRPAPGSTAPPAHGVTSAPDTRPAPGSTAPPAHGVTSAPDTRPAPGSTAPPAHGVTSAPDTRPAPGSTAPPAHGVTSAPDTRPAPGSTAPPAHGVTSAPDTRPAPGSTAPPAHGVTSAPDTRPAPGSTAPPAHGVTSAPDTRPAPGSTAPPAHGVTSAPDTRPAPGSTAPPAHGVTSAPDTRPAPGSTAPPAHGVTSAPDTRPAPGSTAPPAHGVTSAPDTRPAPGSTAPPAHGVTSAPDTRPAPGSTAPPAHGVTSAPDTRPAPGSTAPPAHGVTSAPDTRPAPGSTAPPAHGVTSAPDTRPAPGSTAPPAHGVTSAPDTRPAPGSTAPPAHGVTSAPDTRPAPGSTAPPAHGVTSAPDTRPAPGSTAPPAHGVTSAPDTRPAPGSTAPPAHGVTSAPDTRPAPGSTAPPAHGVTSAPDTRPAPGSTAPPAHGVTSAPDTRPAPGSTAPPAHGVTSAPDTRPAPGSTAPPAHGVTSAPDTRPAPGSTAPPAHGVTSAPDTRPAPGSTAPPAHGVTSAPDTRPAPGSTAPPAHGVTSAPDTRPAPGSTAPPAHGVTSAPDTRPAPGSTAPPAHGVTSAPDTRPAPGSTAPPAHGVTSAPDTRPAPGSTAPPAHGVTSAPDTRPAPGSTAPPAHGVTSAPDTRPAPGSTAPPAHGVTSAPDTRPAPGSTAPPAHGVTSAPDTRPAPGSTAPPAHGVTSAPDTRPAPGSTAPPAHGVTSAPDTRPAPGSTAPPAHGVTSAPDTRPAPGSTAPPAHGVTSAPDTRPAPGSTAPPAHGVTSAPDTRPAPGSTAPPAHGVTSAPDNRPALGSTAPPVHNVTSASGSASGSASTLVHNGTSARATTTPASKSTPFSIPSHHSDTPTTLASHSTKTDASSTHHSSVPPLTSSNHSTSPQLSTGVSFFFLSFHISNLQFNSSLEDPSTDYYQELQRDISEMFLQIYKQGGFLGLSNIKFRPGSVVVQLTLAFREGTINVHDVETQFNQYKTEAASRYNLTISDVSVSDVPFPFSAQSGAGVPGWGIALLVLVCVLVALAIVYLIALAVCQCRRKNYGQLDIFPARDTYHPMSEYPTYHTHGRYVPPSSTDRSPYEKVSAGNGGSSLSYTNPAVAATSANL

Columns and labels:
[1] = target: T1, HER2/ERBB2 receptor tyrosine kinase (human, UniProt P04626 23-1255); test: GST pull-down from cell lysates (discussion of the results)
T1 construct: whole, on cells; Endogenous HER2 in cell lysates, detected by anti-HER2 immunoblot of precipitates or GST adsorbates; also called Neu; CD340

[2] = target: T1, HER2/ERBB2 receptor tyrosine kinase; test: GST-MUC1-CD pull-down from SKBR3 lysates (similar results told for BT474), anti-HER2 immunoblot (FIG. 2A)

- binding [1]: binds
- binding [2]: binds
Substance: GST-MUC1-CD fusion protein (from UniProt P15941 1184-1255)
